For at least one entry, the source does not settle the construct or the ends of the probe. A negative result means that nothing was seen under these conditions.

The data set deals with HbERF6 (Hordeum brevisubulatum). In words: EMSA. The note with it: LightShift EMSA kit 1x binding buffer, 20 ul, 1 ul poly(dI-dC), 4 ug protein, room temperature, 20 min; salt and pH not stated; recombinant protein; protein details: His (pET30a); label: 3' biotin. For orientation: A gel shift assay detects complexes by their altered migration in electrophoresis.
On to “AACGGAACCACTTCTCAACGGAACCACTTCTCAACGGAACCACTTCTC (double strand) [mutant GCC-box-2 probe]”, for which the binding result is reported as “no binding”. The value for “AACGGAGCCGCCTCTCAACGGAGCCGCCTCTCAACGGAGCCGCCTCTC (double strand) [pHbCIPK2 GCC-box-2 probe]” was “binds”; that for “AGGGTAACCACTCCAGAGGGTAACCACTCCAGAGGGTAACCACTCCAG (double strand) [mutant GCC-box-1 probe]” was “no binding”. The value for “AGGGTAGCCGCCCCAGAGGGTAGCCGCCCCAGAGGGTAGCCGCCCCAG (double strand) [pHbCIPK2 GCC-box-1 probe]” was “binds”.

Values taken from article PMC9302439.
